# Test results: paper PMC9133132
# Biological target: FLAG-tagged MED26 N-terminal domain, wild type (human)
# Assay: co-IP; FLAG-immunopurified complexes from baculovirus-infected Sf9 cells expressing the indicated proteins (F-MED26-NTD wt or mut with AF4 or AFF4 wt or mut), western blotting
row,binding,Binder
1,binds,"AFF4, wild type (protein, UniProt Q9UHB7 1-1163) MNREDRNVLRMKERERRNQEIQQGEDAFPPSSPLFAEPYKVTSKEDKLSSRIQSMLGNYDEMKDFIGDRSIPKLVAIPKPTVPPSADEKSNPNFFEQRHGGSHQSSKWTPVGPAPSTSQSQKRSSGLQSGHSSQRTSAGSSSGTNSSGQRHDRESYNNSGSSSRKKGQHGSEHSKSRSSSPGKPQAVSSLNSSHSRSHGNDHHSKEHQRSKSPRDPDANWDSPSRVPFSSGQHSTQSFPPSLMSKSNSMLQKPTAYVRPMDGQESMEPKLSSEHYSSQSHGNSMTELKPSSKAHLTKLKIPSQPLDASASGDVSCVDEILKEMTHSWPPPLTAIHTPCKTEPSKFPFPTKESQQSNFGTGEQKRYNPSKTSNGHQSKSMLKDDLKLSSSEDSDGEQDCDKTMPRSTPGSNSEPSHHNSEGADNSRDDSSSHSGSESSSGSDSESESSSSDSEANEPSQSASPEPEPPPTNKWQLDNWLNKVNPHKVSPASSVDSNIPSSQGYKKEGREQGTGNSYTDTSGPKETSSATPGRDSKTIQKGSESGRGRQKSPAQSDSTTQRRTVGKKQPKKAEKAAAEEPRGGLKIESETPVDLASSMPSSRHKAATKGSRKPNIKKESKSSPRPTAEKKKYKSTSKSSQKSREIIETDTSSSDSDESESLPPSSQTPKYPESNRTPVKPSSVEEEDSFFRQRMFSPMEEKELLSPLSEPDDRYPLIVKIDLNLLTRIPGKPYKETEPPKGEKKNVPEKHTREAQKQASEKVSNKGKRKHKNEDDNRASESKKPKTEDKNSAGHKPSSNRESSKQSAAKEKDLLPSPAGPVPSKDPKTEHGSRKRTISQSSSLKSSSNSNKETSGSSKNSSSTSKQKKTEGKTSSSSKEVKEKAPSSSSNCPPSAPTLDSSKPRRTKLVFDDRNYSADHYLQEAKKLKHNADALSDRFEKAVYYLDAVVSFIECGNALEKNAQESKSPFPMYSETVDLIKYTMKLKNYLAPDATAADKRLTVLCLRCESLLYLRLFKLKKENALKYSKTLTEHLKNSYNNSQAPSPGLGSKAVGMPSPVSPKLSPGNSGNYSSGASSASASGSSVTIPQKIHQMAASYVQVTSNFLYATEIWDQAEQLSKEQKEFFAELDKVMGPLIFNASIMTDLVRYTRQGLHWLRQDAKLIS"
2,binds,"AF4, wild type (protein, UniProt P51825 1-1210) MAAQSSLYNDDRNLLRIREKERRNQEAHQEKEAFPEKIPLFGEPYKTAKGDELSSRIQNMLGNYEEVKEFLSTKSHTHRLDASENRLGKPKYPLIPDKGSSIPSSSFHTSVHHQSIHTPASGPLSVGNISHNPKMAQPRTEPMPSLHAKSCGPPDSQHLTQDRLGQEGFGSSHHKKGDRRADGDHCASVTDSAPERELSPLISLPSPVPPLSPIHSNQQTLPRTQGSSKVHGSSNNSKGYCPAKSPKDLAVKVHDKETPQDSLVAPAQPPSQTFPPPSLPSKSVAMQQKPTAYVRPMDGQDQAPSESPELKPLPEDYRQQTFEKTDLKVPAKAKLTKLKMPSQSVEQTYSNEVHCVEEILKEMTHSWPPPLTAIHTPSTAEPSKFPFPTKDSQHVSSVTQNQKQYDTSSKTHSNSQQGTSSMLEDDLQLSDSEDSDSEQTPEKPPSSSAPPSAPQSLPEPVASAHSSSAESESTSDSDSSSDSESESSSSDSEENEPLETPAPEPEPPTTNKWQLDNWLTKVSQPAAPPEGPRSTEPPRRHPESKGSSDSATSQEHSESKDPPPKSSSKAPRAPPEAPHPGKRSCQKSPAQQEPPQRQTVGTKQPKKPVKASARAGSRTSLQGEREPGLLPYGSRDQTSKDKPKVKTKGRPRAAASNEPKPAVPPSSEKKKHKSSLPAPSKALSGPEPAKDNVEDRTPEHFALVPLTESQGPPHSGSGSRTSGCRQAVVVQEDSRKDRLPLPLRDTKLLSPLRDTPPPQSLMVKITLDLLSRIPQPPGKGSRQRKAEDKQPPAGKKHSSEKRSSDSSSKLAKKRKGEAERDCDNKKIRLEKEIKSQSSSSSSSHKESSKTKPSRPSSQSSKKEMLPPPPVSSSSQKPAKPALKRSRREADTCGQDPPKSASSTKSNHKDSSIPKQRRVEGKGSRSSSEHKGSSGDTANPFPVPSLPNGNSKPGKPQVKFDKQQADLHMREAKKMKQKAELMTDRVGKAFKYLEAVLSFIECGIATESESQSSKSAYSVYSETVDLIKFIMSLKSFSDATAPTQEKIFAVLCMRCQSILNMAMFRCKKDIAIKYSRTLNKHFESSSKVAQAPSPCIASTGTPSPLSPMPSPASSVGSQSSAGSVGSSGVAATISTPVTIQNMTSSYVTITSHVLTAFDLWEQAEALTRKNKEFFARLSTNVCTLALNSSLVDLVHYTRQGFQQLQELTKTP"

# These are yes or no findings as the source states them, for the method shown. In cells and extracts the contact can be indirect. Binding can be weak; no strength is given.
